This passage reports binding results from doi:10.1101/2022.07.18.500419.

Chains of the proteins cited; added tags and fusions are not shown. Residues count along the entry.
UniProt Q8IFM5, residues 25-526: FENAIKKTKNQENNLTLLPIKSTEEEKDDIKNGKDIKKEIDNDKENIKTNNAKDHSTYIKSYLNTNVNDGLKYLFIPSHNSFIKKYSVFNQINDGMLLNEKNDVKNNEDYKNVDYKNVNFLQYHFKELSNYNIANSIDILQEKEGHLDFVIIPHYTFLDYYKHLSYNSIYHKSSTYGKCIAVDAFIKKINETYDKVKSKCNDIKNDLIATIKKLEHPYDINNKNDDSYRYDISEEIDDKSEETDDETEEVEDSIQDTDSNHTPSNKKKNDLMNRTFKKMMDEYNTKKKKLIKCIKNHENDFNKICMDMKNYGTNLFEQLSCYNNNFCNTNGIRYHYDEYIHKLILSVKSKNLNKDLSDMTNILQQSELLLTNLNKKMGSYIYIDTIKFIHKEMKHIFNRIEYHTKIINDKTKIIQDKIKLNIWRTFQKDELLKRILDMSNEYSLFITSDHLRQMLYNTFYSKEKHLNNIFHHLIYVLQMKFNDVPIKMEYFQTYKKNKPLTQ

This experiment deals with full-length recombinant RH5 protein with His-tag (reticulocyte binding protein homologue 5) (Plasmodium falciparum) (UniProt Q8IFM5). In words: pull-down.

Results are given in words; binding and its absence hold for the method and conditions named. In cells and extracts the contact can be indirect. Some binding calls cover weakened binding; strength is not graded here.

Turning to “β2-adrenergic receptor (from UniProt P07550 1-413)”, the binding entry was “binds”.
